Measured values taken from the supplement of paper PMC7661543.
The effect of the compound repeats well; differences between the knockouts mostly do not.

Columns and labels:
HCC-38 = experiment: relative cell number vs DMSO control (72 h) (% of DMSO); higher = less growth inhibition (more cells)
Procedure: (§1)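 QMAP-Seq: a pool of 5 breast cancer cell lines (ZR-75-1, SKBR3, HCC-38, MDA-MB-231, BT-20), each carrying 12 doxycycline-inducible Cas9 sgRNA perturbations (11 knockouts plus non-targeting sgNT), was treated with compounds for 72 h at four 10-fold doses (10 nM-10 uM or 1 nM-1 uM range). Barcodes were amplified and sequenced, and cell number was interpolated from 293T spike-in standard curves. The result is expressed as % of the median of DMSO wells. Two biological replicates.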

MDA-MB-231 = experiment: as above
Procedure: as §1

Cc1ccc2c(c1)C(=O)C1(O)CCN(c3ccccc3)C1=N2 (stereo not drawn) [Blebbistatin]
relative cell number
Conditions	HCC-38	MDA-MB-231
sgRNA knockout: sgATF3, 10 nM	132	129
sgRNA knockout: sgATF3, 100 nM	139	124.4
sgRNA knockout: sgATF3, 1000 nM	117	122
sgRNA knockout: sgATF3, 10000 nM	73.3	97.8
sgRNA knockout: sgATF4, 10 nM	124	152
sgRNA knockout: sgATF4, 100 nM	122	148
sgRNA knockout: sgATF4, 1000 nM	109	147
sgRNA knockout: sgATF4, 10000 nM	70.8	87.6
sgRNA knockout: sgATF6, 10 nM	124	91.7
sgRNA knockout: sgATF6, 100 nM	134	102
sgRNA knockout: sgATF6, 1000 nM	136	136
sgRNA knockout: sgATF6, 10000 nM	71.5	79.3
sgRNA knockout: sgATG7, 10 nM	115	119
sgRNA knockout: sgATG7, 100 nM	118	112
sgRNA knockout: sgATG7, 1000 nM	112	118
sgRNA knockout: sgATG7, 10000 nM	67.2	72.5
sgRNA knockout: sgERN1, 10 nM	128	124
sgRNA knockout: sgERN1, 100 nM	119	116
sgRNA knockout: sgERN1, 1000 nM	116	110
sgRNA knockout: sgERN1, 10000 nM	72.6	84
sgRNA knockout: sgHSF1, 10 nM	125	119.6
sgRNA knockout: sgHSF1, 100 nM	166	102
sgRNA knockout: sgHSF1, 1000 nM	123	93.2
sgRNA knockout: sgHSF1, 10000 nM	71.9	64.27
sgRNA knockout: sgHSF2, 10 nM	139	115
sgRNA knockout: sgHSF2, 100 nM	151	140
sgRNA knockout: sgHSF2, 1000 nM	135	109
sgRNA knockout: sgHSF2, 10000 nM	73.3	84.7
sgRNA knockout: sgKEAP1, 10 nM	134.22	105
sgRNA knockout: sgKEAP1, 100 nM	154	130
sgRNA knockout: sgKEAP1, 1000 nM	150	98
sgRNA knockout: sgKEAP1, 10000 nM	85.7	103
sgRNA knockout: sgNFE2L2, 10 nM	117	115
sgRNA knockout: sgNFE2L2, 100 nM	116	118.5
sgRNA knockout: sgNFE2L2, 1000 nM	107.3	114
sgRNA knockout: sgNFE2L2, 10000 nM	71.5	82.7
sgRNA knockout: sgSLC35F2, 10 nM	121	110
sgRNA knockout: sgSLC35F2, 100 nM	130	115
sgRNA knockout: sgSLC35F2, 1000 nM	122	101
sgRNA knockout: sgSLC35F2, 10000 nM	74.2	75.2
sgRNA knockout: sgXBP1, 10 nM	125	124
sgRNA knockout: sgXBP1, 100 nM	124	118
sgRNA knockout: sgXBP1, 1000 nM	119	123
sgRNA knockout: sgXBP1, 10000 nM	68.7	87.2
